Data published in PubChem BioAssay AID2685 (National Center for Advancing Translational Sciences (NCATS), 2010).
The other results are listed elsewhere or left out. The main result of the screen is listed elsewhere. These columns were measured beside it and carry no call. The list favours compounds with an active or inconclusive main result. The note in brackets gives the kind of curve behind each potency; many fits are weak.

Experiment: qHTS Assay for Lipid Storage Modulators in Drosophila S3 Cells;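 for cell number change: cells counted by Cell Tracker Red CMTPX staining in the red channel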
Conditions: BODIPY lipid droplet fluorescence, 18-24 h; for cell number change: measured here: cell count max response, cells fed with added oleic acid
How it was run: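 Laser-scanning cytometry quantifies lipid droplet accumulation (500–530 nm total intensity; droplet/cell object ratio) in oleic acid-fed (400 uM added) Drosophila S3 cells treated with a concentration series. 20 uM Triacsin C defined 100% inhibition.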

[1] = measured here: lipid fluorescence (Fed channel) AC50, cells fed with added oleic acid
[2] = measured here: cell number channel AC50, cells fed with added oleic acid

Row | Compound | cell number change [%] | AC50 [1] | AC50 [2]
1 | CC/C(=N\NC(=O)c1nnn(-c2nonc2N)c1-c1cccc(OC)c1)c1ccc(C)cc1 | 21.2 | 23.1 µM [rising, single point] | 
2 | Cc1ccccc1OC(C)c1nc(-c2ccccc2)no1 (stereo not given) | 119 |  | 18.4 µM [rising, partial curve]
3 | NC(=O)CSc1nnc(CSc2ncccn2)n1-c1ccccc1 | -13.7 | 0.411 µM [falling, full curve] | 
4 | COc1ccc(C(CC(=O)O)NC(=O)C(c2ccccc2)c2ccccc2)cc1 (stereo not given) | 42.3 |  | 7.31 µM [rising, partial curve, poor fit]
5 | COc1ccc(N(CC(=O)NC2CC3CCC2C3)S(=O)(=O)c2ccccc2)cc1Cl (stereo not given) | -8.38 |  | 
6 | CC(C)(NC(=O)NC(CO)c1ccccc1)c1cccc(C(C)(C)NC(=O)NC(CO)c2ccccc2)c1 (stereo not given) | 12.2 | 0.231 µM [rising, full curve, poor fit] | 
7 | Cc1ccc(S(=O)(=O)N2CCCCC2)cc1NC(=O)c1ccc(Br)o1 | 10.8 | 0.259 µM [rising, partial curve] | 0.058 µM [rising, full curve, poor fit]
8 | Cc1c(NC(=O)CSc2nc3ccc(Cl)cc3[nH]2)c(=O)n(-c2ccccc2)n1C | 42.3 |  | 14.6 µM [rising, single point]
9 | [O-]/[N+](=C\c1ccccc1)c1ccc(Br)cc1 | -38.8 | 13 µM [falling, partial curve, poor fit] | 29.1 µM [falling, single point]
10 | Cc1cccc(N(C)Cc2nnc(-c3cccc(Br)c3)o2)c1 | 19.4 | 23.1 µM [falling, single point] | 
11 | CCN(CC(=O)Nc1ccc(OC)cc1)C(=O)c1cc2c(s1)CCCCC2 | 2.14 | 0.206 µM [rising, full curve, poor fit] | 
12 | O=C(CCc1ccccn1)N1CCCC(N2CCN(c3ccc(F)cc3)CC2)C1 (stereo not given) | -9.94 | 0.13 µM [rising, full curve] | 
13 | O=C(O)C(Cc1ccc(O)cc1)N1C(=O)c2ccccc2C1=O (stereo not given) | -6.16 | 4.61 µM [rising, single point] | 
14 | Cc1noc(C)c1COc1ccc(C(=O)OCC(=O)OC(C)(C)C)cc1 | -18.5 |  | 0.259 µM [falling, full curve, poor fit]
15 | Clc1ccc(CNc2ccc(CNc3ncn[nH]3)cc2)cc1 | 78 | 0.82 µM [falling, full curve, poor fit] | 14.6 µM [rising, partial curve, poor fit]
16 | CC(c1ccccc1)N1C(=O)c2ccccc2C1(O)Cc1ccccc1 (stereo not given) | -28.4 | 20.6 µM [falling, single point] | 
17 | Cc1nc(NC(=O)c2cncc(Br)c2)ccc1Br | 29.3 |  | 
18 | Cc1ccc(NCCC(=O)c2cccs2)cc1 | 15.5 | 13 µM [rising, partial curve, poor fit] | 
19 | CCOC(=O)C(=CNc1ccc(NC2=NCC(C)S2)cc1)C(=O)OCC (stereo not given) | 114 | 16.4 µM [rising, partial curve, poor fit] | 29.1 µM [rising, single point]
20 | O=C(NC(=S)Nc1cccc2ncccc12)c1cccs1 | 5.62 | 1.16 µM [rising, single point] | 
21 | CCCn1c(SCC(=O)Nc2c(C)cccc2C)nnc1C(C)C | 7.54 | 0.00461 µM [falling, full curve, poor fit] | 
22 | CC1CCCCN1C(=O)COC(=O)c1cccc(NS(=O)(=O)c2ccccc2)c1 (stereo not given) |  | 2.91 µM [falling, partial curve] | 2.06 µM [falling, partial curve]
23 | COc1ccc(CNC(=O)c2sc(=S)n(-c3ccccc3)c2N)cc1 | 8.42 | 0.103 µM [rising, full curve, poor fit] | 
24 | O=C(CCS(=O)(=O)c1ccccc1)Nc1nncs1 | -0.435 | 0.58 µM [falling, single point] | 
25 | COc1ccc(C(=O)NCC(c2ccco2)N(C)C)cc1S(=O)(=O)NCc1ccc(Cl)cc1 (stereo not given) | 16.4 | 0.731 µM [rising, full curve, poor fit] | 
26 | O=c1[nH]c(/C=C/c2ccc(Cl)cc2Cl)c([N+](=O)[O-])c(=O)[nH]1 | 3.72 | 6.51 µM [falling, single point] | 
27 | Cc1ccc(Nc2nc(N)nc(CSc3nnc(C)s3)n2)cc1 | 37.4 | 5.8 µM [rising, partial curve, poor fit] | 0.103 µM [rising, full curve, poor fit]

Row | Compound | cell number change [%] | AC50 [1] | AC50 [2]
28 | Cc1cccc2c(N)c3c(nc12)CCCC3 (tested in a mixture with another compound) | -42.2 | 29.1 µM [falling, single point] | 16.4 µM [falling, single point]
29 | O=C(NCc1ccc(F)c(F)c1)C1CCC(=O)N(CC2CCCCC2)C1 (stereo not given) | 33.7 | 29.1 µM [rising, single point] | 9.2 µM [rising, partial curve, poor fit]
30 | O=C(NC(=Nc1ccccc1)N1CCOCC1)Nc1ccccc1 | -24.9 | 0.58 µM [falling, full curve, poor fit] | 0.259 µM [falling, full curve, poor fit]
31 | COc1cc(C(=O)Nc2ccccc2C(=O)Nc2ccccn2)cc(OC)c1OC | -20.6 | 3.66 µM [rising, single point] | 
32 | CCOC(=O)[C@@H]1[C@H]2COc3cc(OC)ccc3[C@H]2N2C(=O)N(c3ccc(F)cc3)C(=O)[C@@]12C | 35.3 | 0.164 µM [rising, full curve, poor fit] | 2.59 µM [rising, full curve]
33 | COc1ccc(C(=O)NC2CCSc3ccccc32)cc1F (stereo not given) | 27 | 29.1 µM [falling, single point] | 
34 | CN(C(=O)c1ccc(Br)cc1)C1CCS(=O)(=O)C1 (stereo not given) | -41.5 |  | 2.06 µM [falling, full curve]
35 | Cc1ccccc1-c1nc(CS(=O)(=O)CC(=O)NCc2ccc(F)cc2)c(C)o1 | 8.07 |  | 
36 | Cc1cc(C)c(S(=O)(=O)N(C)CC(=O)NCc2ccccn2)c(C)c1 | 34.2 |  | 
37 | Cc1ccccc1NC(=O)Cn1cnc2c(oc3nc4c(cc32)CCCC4)c1=O | -15.3 | 18.4 µM [rising, partial curve] | 
38 | O=C(O)CCC(=O)c1cccc2ccccc12 | 18.4 | 0.116 µM [falling, full curve, poor fit] | 0.164 µM [rising, full curve, poor fit]
39 | COc1ccccc1NC(=O)c1sc2ncn(Cc3cccc4ccccc34)c(=O)c2c1C | 11 | 2.91 µM [rising, full curve] | 
40 | Cc1[nH]n(-c2ccccc2)c(=O)c1/C=N/NC(=O)COc1ccccc1[N+](=O)[O-] | -16.9 | 0.206 µM [rising, full curve, poor fit] | 3.66 µM [falling, single point]
41 | O=C(Nc1nc2ccccc2[nH]1)c1cccc(Br)c1 | 10.1 | 6.51 µM [rising, single point] | 
42 | O=C(COc1cccc(Br)c1)N/N=C/C(=O)c1ccccc1 | -42.3 |  | 29.1 µM [falling, single point]
43 | Cc1cccc(-c2onc3ccc(C4(C)OCCO4)cc23)c1 |  | 11.6 µM [rising, partial curve] | 
44 | COc1ccc(O[C@H]2C=C[C@@H](c3ccccc3)O[C@@H]2COC(=O)CCC(C)=NO[C@@H]2O[C@H](COC(C)=O)[C@@H](OC(C)=O)[C@H](OC(C)=O)[C@H]2OC(C)=O)cc1 | -13.2 | 6.51 µM [rising, full curve] | 
45 | C[C@]12C(=O)N(c3ccccc3)C(=O)N1[C@@H]1c3ccccc3OC[C@@H]1[C@H]2c1ccccc1 | 7.19 | 9.2 µM [rising, partial curve, poor fit] | 
46 | O=C(c1cc(-c2ccc(F)cc2)on1)N1CCCCCC1 | 14 | 0.13 µM [falling, full curve, poor fit] | 
47 | O=C(O)/C=C\C(=O)Nc1ccccc1N1CCN(c2ccccc2)CC1 | -3.87 | 29.1 µM [rising, single point] | 
48 | CSc1ncccc1C(=O)OCc1ccccc1F | -6.25 | 6.51 µM [falling, single point] | 6.51 µM [falling, single point]
49 | COc1ccc(NS(=O)(=O)c2ccc(NC(=S)NC(=O)C(C)C)cc2)cc1 | 3.52 |  | 
50 | COC(=O)/C=C/C(=O)Nc1cccc(C(F)(F)F)c1 | -16.6 | 1.84 µM [falling, partial curve, poor fit] | 0.461 µM [falling, full curve, poor fit]
51 | CCc1cc(C(=O)N2CCN(C(=O)c3ccccc3)CC2)sc1C | -6.83 | 0.00461 µM [rising, full curve, poor fit] | 
52 | O=C(O)CCCn1cc(NC(=O)COc2cc(F)ccc2[N+](=O)[O-])cn1 | 0.291 | 18.4 µM [falling, single point] | 
53 | Cc1noc(C)c1C(=O)N1CCN(c2ncccn2)CC1 | -15.1 | 29.1 µM [falling, single point] | 
54 | O=C(OCc1nc2scc(-c3ccccc3)c2c(=O)[nH]1)c1cc(Cl)ccc1[N+](=O)[O-] | 7.17 | 0.92 µM [rising, partial curve] | 

Reformatted: entries from further up.

| Row | Compound | cell number change [%] | AC50 [1] | AC50 [2] |
| --- | --- | --- | --- | --- |
| 30 | O=C(NC(=Nc1ccccc1)N1CCOCC1)Nc1ccccc1 | -24.9 | 0.58 µM [falling, full curve, poor fit] | 0.259 µM [falling, full curve, poor fit] |
| 31 | COc1cc(C(=O)Nc2ccccc2C(=O)Nc2ccccn2)cc(OC)c1OC | -20.6 | 3.66 µM [rising, single point] |  |
| 32 | CCOC(=O)[C@@H]1[C@H]2COc3cc(OC)ccc3[C@H]2N2C(=O)N(c3ccc(F)cc3)C(=O)[C@@]12C | 35.3 | 0.164 µM [rising, full curve, poor fit] | 2.59 µM [rising, full curve] |
| 33 | COc1ccc(C(=O)NC2CCSc3ccccc32)cc1F (stereo not given) | 27 | 29.1 µM [falling, single point] |  |
| 34 | CN(C(=O)c1ccc(Br)cc1)C1CCS(=O)(=O)C1 (stereo not given) | -41.5 |  | 2.06 µM [falling, full curve] |
| 35 | Cc1ccccc1-c1nc(CS(=O)(=O)CC(=O)NCc2ccc(F)cc2)c(C)o1 | 8.07 |  |  |
| 36 | Cc1cc(C)c(S(=O)(=O)N(C)CC(=O)NCc2ccccn2)c(C)c1 | 34.2 |  |  |
| 37 | Cc1ccccc1NC(=O)Cn1cnc2c(oc3nc4c(cc32)CCCC4)c1=O | -15.3 | 18.4 µM [rising, partial curve] |  |
| 38 | O=C(O)CCC(=O)c1cccc2ccccc12 | 18.4 | 0.116 µM [falling, full curve, poor fit] | 0.164 µM [rising, full curve, poor fit] |
| 39 | COc1ccccc1NC(=O)c1sc2ncn(Cc3cccc4ccccc34)c(=O)c2c1C | 11 | 2.91 µM [rising, full curve] |  |
| 40 | Cc1[nH]n(-c2ccccc2)c(=O)c1/C=N/NC(=O)COc1ccccc1[N+](=O)[O-] | -16.9 | 0.206 µM [rising, full curve, poor fit] | 3.66 µM [falling, single point] |
| 41 | O=C(Nc1nc2ccccc2[nH]1)c1cccc(Br)c1 | 10.1 | 6.51 µM [rising, single point] |  |
| 42 | O=C(COc1cccc(Br)c1)N/N=C/C(=O)c1ccccc1 | -42.3 |  | 29.1 µM [falling, single point] |
